This note sets out measurements from patent publication US20140315301A1.

Protein sequences, listed by entry. Tags and fused reporters are not part of them. Lines headed by an entry give the natural chain unless they say otherwise; changes in a name come on top.
UniProt Q9Z2D8: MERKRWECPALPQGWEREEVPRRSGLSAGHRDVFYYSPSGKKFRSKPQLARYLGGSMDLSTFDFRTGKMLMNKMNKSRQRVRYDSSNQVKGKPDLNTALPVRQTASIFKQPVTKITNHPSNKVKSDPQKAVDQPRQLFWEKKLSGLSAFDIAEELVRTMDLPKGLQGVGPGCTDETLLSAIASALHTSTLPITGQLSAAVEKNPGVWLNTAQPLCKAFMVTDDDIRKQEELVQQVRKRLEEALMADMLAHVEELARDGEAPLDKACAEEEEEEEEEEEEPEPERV
UniProt Q13547: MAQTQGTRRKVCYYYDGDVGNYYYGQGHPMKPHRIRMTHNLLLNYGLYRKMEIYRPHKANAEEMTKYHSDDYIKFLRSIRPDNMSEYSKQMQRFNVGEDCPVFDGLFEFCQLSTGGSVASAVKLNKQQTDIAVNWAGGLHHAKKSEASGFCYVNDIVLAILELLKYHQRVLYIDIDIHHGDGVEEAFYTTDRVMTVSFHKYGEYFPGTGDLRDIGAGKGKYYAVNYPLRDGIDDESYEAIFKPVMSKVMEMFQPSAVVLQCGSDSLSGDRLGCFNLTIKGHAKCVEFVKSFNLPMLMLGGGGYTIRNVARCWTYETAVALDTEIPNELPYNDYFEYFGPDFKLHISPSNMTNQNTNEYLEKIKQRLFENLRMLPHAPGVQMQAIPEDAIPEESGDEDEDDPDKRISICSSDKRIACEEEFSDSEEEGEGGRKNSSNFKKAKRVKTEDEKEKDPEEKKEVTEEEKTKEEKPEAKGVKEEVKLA
UniProt Q6PDQ2: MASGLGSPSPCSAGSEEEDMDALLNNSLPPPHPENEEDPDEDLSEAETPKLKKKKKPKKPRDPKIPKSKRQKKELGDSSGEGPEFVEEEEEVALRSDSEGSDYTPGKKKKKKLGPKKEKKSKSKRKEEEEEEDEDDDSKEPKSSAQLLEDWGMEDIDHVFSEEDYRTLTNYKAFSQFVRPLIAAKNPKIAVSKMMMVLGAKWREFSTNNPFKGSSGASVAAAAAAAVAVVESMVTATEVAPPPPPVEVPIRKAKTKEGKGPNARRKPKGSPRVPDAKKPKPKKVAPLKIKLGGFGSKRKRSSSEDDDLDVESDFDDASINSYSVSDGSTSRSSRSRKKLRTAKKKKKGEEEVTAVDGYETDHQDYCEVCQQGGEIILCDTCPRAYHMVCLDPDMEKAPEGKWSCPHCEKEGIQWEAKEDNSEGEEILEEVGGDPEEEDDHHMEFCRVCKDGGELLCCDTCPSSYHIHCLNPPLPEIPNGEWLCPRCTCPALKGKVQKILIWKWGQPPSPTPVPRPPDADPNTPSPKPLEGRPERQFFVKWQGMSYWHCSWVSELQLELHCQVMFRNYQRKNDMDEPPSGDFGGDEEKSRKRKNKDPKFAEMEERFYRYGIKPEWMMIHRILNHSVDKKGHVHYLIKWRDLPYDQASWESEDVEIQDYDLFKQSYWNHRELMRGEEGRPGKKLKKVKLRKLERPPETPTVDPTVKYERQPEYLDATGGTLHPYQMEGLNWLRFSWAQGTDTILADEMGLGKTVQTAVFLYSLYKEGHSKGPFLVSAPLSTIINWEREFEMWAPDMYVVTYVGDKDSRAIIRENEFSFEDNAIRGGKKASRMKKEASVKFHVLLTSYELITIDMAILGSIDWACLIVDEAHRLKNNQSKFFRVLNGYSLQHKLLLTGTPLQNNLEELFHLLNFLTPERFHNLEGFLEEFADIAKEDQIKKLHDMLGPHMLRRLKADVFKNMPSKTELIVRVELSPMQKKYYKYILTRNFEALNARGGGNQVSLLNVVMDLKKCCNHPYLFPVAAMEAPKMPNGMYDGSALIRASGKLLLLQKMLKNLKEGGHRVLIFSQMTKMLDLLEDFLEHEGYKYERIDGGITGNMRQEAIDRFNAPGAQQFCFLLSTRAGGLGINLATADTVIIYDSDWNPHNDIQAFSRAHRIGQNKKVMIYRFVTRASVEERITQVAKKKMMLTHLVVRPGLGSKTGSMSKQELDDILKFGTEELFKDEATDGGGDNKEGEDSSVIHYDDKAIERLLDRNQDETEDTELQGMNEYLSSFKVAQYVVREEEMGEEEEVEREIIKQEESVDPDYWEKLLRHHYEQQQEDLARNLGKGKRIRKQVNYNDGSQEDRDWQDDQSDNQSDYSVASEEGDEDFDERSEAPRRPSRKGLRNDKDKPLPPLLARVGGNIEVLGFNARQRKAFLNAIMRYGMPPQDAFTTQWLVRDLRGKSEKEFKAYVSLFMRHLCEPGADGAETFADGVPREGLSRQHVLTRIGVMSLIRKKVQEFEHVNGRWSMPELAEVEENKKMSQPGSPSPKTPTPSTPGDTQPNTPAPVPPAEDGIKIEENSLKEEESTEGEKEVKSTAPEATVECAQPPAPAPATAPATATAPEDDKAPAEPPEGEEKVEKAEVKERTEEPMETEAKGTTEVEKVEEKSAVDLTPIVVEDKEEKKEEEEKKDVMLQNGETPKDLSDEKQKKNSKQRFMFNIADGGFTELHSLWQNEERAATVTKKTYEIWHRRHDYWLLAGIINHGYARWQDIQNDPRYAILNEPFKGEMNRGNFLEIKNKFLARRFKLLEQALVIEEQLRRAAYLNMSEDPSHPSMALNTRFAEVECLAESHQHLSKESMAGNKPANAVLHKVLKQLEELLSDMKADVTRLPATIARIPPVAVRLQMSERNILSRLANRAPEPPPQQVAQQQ
UniProt Q9UBB5: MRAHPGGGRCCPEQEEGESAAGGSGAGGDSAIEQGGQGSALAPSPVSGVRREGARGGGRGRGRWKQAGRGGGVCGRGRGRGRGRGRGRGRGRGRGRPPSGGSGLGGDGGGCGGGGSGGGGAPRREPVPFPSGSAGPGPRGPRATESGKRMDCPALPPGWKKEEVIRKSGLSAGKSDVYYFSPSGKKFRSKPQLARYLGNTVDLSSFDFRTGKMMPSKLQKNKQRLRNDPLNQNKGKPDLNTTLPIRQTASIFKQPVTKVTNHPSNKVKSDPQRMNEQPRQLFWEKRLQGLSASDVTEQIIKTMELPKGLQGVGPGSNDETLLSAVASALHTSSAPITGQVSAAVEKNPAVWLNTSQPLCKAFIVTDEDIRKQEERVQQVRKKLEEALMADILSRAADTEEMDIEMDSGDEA

These are yes or no findings as the source states them, for the method shown. Binding seen in cells or lysates may run through a third protein. Some binding calls cover weakened binding; strength is not graded here.

The target of assay [1] is Mbd3, endogenous, in mouse ESCs and mouse embryonic fibroblasts (mouse) (UniProt Q9Z2D8). Nature of the assay: co-IP of Chd4 (Mi2b) from secondary Mbd3+/+ fibroblasts 3 days after Dox induction in 2i/LIF, immunoblot. A general note: In western blotting, separated proteins are transferred to a membrane and probed.
For assay [2], the target named is Flag-tagged HDAC1 (Homo sapiens (Human)) (UniProt Q13547). Nature of the assay: co-IP: anti-Flag IP from lysate of HEK293T cells co-transfected with Flag-HDAC1 and MBD2, immunoblot.

As to “Chd4 (Mi2b), the core subunit of the NuRD complex, endogenous in mouse cells (from UniProt Q6PDQ2 1-1915) (enzyme)”, the binding entry in assay [1] is on record as “binds”. Turning to “MBD2, overexpressed in HEK293T cells (from UniProt Q9UBB5 1-411)”, the binding result in assay [2] is listed as “binds”.
